Measurements reported in publication PMC9490176 (Frontiers in Pharmacology, 2022).

Tested on: pyrotinib metabolism in rat liver microsomes (RLMs)
Assay: In vitro drug-drug interaction study: azole inhibition of pyrotinib metabolism (M1 formation) in RLMs
Format: in vitro ADME, Sprague-Dawley (SD) rat
Settings: for inhibition type: Lineweaver-Burk plot; for α: indicative of inhibition type
Description: The rats were anesthetized with 10% chloral hydrate after 12 h of starvation. […] The rat liver tissue was then accurately removed and transferred to Petri dishes at 0–4°C. The tissues were homogenized in 0.15 mol/L KCl-PBS buffer and stored at 4°C. The homogenate (CR30NX, Eppendorf, Germany) was centrifuged at 9000 rpm at 4°C for 30 min. The supernatant was transferred to another tube and was centrifuged at 105000 rpm at 4°C for 60 min. The precipitate containing liver microsomes was removed and suspended in 0.15 mol/L KCl-PBS buffer (containing 0.25 mol/L sucrose) and stored at −80°C for later use. The liver microsomal concentration was 8.838 mg/ml after the determination with the BCA protein quantification kit (Thermo Scientific, Waltham, MA, United States).
Waters Acquity UPLC I-Class (Waters, USA) was used to separate pyrotinib and midazolam. A binary solvent manager (BSM) and sample manager with a flow-through needle (SM-FTN) were used in the UPLC system. The metabolites’ effective separation was achieved using Acquity UPLC HSS T3 (100 × 2.1 mm, 1.8 μm particle size) (Waters Corporation, Milford, MA, USA) with a mobile phase of acetonitrile (solvent A) and 0.1% formic acid water containing 20 mmol ammonium acetate (solvent B). The gradient program was set as following: 0–0.3 min 10–30% A; 0.3–1 min 30–95% A; 1–2 min 95% A; 2–2.3 min 95–10% A. The mobile phase’s flow rate was 0.4 mL/min, the column temperature was set as 40 °C, and the injection volume was 2 μL. The XEVO TQD triple quadrupole mass spectrometer was equipped with an electrospray ionization (ESI) source, and the multiple reaction monitoring (MRM) mode was selected for quantification. The data were collected using the Mass lynx 4.1 software (Waters Corp.). Mass spectral data were obtained in positive electrospray mode (ESI+) in MRM mode. Nitrogen was used as desolvation (1000 L/h) and cone gases (50 L/h). The ion monitoring voltage conditions were as follows: capillary voltage, 2.5 kV; source temperature, 150°C; desolvation temperature, 500°C. Various reaction monitoring methods were used for quantitative analysis.
200 µl of the incubation mixture was set up as following: 0.3 mg/ml RLMs, 100 mM potassium phosphate buffer (pH 7.4), 1 mM NADPH, and three azole antifungal drugs. […] For fluconazole and itraconazole, the concentrations of them were all adjusted to 0.01, 0.1, 1, 5, 10, 50, and 100 µM. […] The ingredients were combined and pre-warmed for 5 min at 37°C. The reaction was initiated with NADPH and incubated at 37°C for 30 min. Then, 200 µl of acetonitrile-midazolam solution (containing midazolam 200 ng/ml) was added and the mixture was vortexed for 2 min to stop the reaction. After been centrifuged at 13000 rpm for 5 min, 2 µl aliquot of the supernatant was then used for the UPLC-MS/MS analysis.
GraphPad Prism 7.0 software (GraphPad Software Inc.) was used to calculate the enzyme kinetic parameters of substrates which include Vmax, Km, IC50, Ki, and αKi values. The enzyme inhibition mode was obtained using the Linear Lineweaver-Burk plots. The PK characteristics, maximal plasma concentration (Cmax), time to peak plasma concentration (Tmax), apparent volume of distribution (Vz/F), area under the plasma concentration-time curve (AUC), elimination half-life (t1/2), plasma clearance (Cl/F), and mean residence time (MRT), were calculated using DAS (Drug and Statistics) software (Version 3.2.8, The People’s Hospital of Lishui, China). […]

**Q.** How did the inhibition type turn out when `CCC(C)n1ncn(-c2ccc(N3CCN(c4ccc(OCC5COC(Cn6cncn6)(c6ccc(Cl)cc6Cl)O5)cc4)CC3)cc2)c1=O` (centres unmarked) [itraconazole, Itraconazole] was run?
**A.** mixed-type inhibition of noncompetitive/competitive

**Q.** And the α?
**A.** 0.673

**Q.** For `OC(Cn1cncn1)(Cn1cncn1)c1ccc(F)cc1F` [fluconazole, Fluconazole], which inhibition type is on record?
**A.** mixed-type inhibition of noncompetitive/uncompetitive

**Q.** What about the α of the same molecule?
**A.** 1.259

**Q.** For `CC(=O)N1CCN(c2ccc(OCC3COC(Cn4ccnc4)(c4ccc(Cl)cc4Cl)O3)cc2)CC1` (centres unmarked) [ketoconazole, Ketoconazole], which inhibition type is on record?
**A.** mixed-type inhibition of noncompetitive/competitive; also recorded: mixed inhibition type of noncompetitive/competitive

“Also recorded” adds a separate entry of the source.
